Measured values published in patent publication US9523693B2, “Methods for determining ligand binding to a target protein using a thermal shift assay” (Biotarget Engagement Interest Group AB, priority 2011, dated 2016).
For at least one compound, name, drawing or mass did not settle the structure.

Protein sequences, listed by entry. Tags and fused reporters are not part of them.
UniProt Q8NEB9, whole entry: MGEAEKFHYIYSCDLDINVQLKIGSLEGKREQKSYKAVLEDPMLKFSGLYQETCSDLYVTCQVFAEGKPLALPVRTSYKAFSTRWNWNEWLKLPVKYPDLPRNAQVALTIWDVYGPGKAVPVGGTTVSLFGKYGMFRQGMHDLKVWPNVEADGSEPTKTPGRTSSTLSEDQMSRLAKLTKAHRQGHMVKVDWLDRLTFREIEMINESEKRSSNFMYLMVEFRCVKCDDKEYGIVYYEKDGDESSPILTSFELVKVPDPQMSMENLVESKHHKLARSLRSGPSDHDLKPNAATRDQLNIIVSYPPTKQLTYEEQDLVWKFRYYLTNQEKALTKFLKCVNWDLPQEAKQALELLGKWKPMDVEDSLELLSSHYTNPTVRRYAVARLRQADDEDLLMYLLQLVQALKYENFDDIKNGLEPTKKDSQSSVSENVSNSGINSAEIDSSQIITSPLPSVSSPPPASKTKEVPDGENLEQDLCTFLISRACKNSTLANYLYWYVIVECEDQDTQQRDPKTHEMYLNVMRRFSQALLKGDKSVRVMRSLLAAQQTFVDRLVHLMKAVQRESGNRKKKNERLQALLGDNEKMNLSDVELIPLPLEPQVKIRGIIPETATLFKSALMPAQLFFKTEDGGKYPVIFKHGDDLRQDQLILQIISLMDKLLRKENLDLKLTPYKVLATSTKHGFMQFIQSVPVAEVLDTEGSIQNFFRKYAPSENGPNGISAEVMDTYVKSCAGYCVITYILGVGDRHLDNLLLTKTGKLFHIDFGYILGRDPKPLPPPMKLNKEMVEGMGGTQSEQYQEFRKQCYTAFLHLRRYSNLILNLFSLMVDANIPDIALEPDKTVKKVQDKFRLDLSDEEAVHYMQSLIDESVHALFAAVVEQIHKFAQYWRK

Target: T1, human soluble PIK3C3 protein (Homo sapiens, UniProt Q8NEB9)
T1 construct: expressed in transfected cells; host or cells: E. coli
Test: Thermal shift (lysis/filtration blot) in E. coli cells overexpressing PIK3C3 construct
Assay type: cell-based
Details: 1 mM Compound 15e or 500 μM Wortmannin, without ligand ca +55°
Excerpt: An expression construct of human soluble PIK3C3 protein in an expression vector with N-terminal His-tag was used to investigate a possible increase in melting temperature of the PIK3C3 construct after addition and binding of either of two PIK3C3 specific inhibitors; Wortmannin and Compound 15e. After treatment with or without one of the two inhibitors the cells expressing the PIK3C3 constructs were exposed to a panel of increasing temperatures and after each temperature step the cells expressing the proteins were spotted onto a “lysis/filtration sandwich” soaked in lysis buffer. By using this lysis/filtration step on the “lysis/filtration sandwich” the soluble protein (up to the construct's specific melting temperature) could be detected on a capturing nitrocellulose membrane as dark spots, whereas precipitated protein (i.e., above its specific melting temperature) was not able to pass through the filter membrane and could therefore not be detected. Melting temperatures of constructs treated with Compound 15e or Wortmannin were compared with those of untreated samples. […]

COC[C@H]1OC(=O)c2coc3c2[C@@]1(C)C1=C(C3=O)[C@@H]2CCC(=O)[C@@]2(C)C[C@H]1OC(C)=O [Wortmannin]
melting temperature after addition of inhibitor: ~65 °C
